No constants are given. Whether binding was seen depends on the method and setting. In cells and extracts the contact can be indirect. A yes stands for co-enrichment or nearness to the bait. Other partners may have been found.
Target: BioID2-TRIM28 (UniProt Q13263)
Test: proximity labelling

Chains of the proteins cited; added tags and fusions are not shown.
UniProt Q13263: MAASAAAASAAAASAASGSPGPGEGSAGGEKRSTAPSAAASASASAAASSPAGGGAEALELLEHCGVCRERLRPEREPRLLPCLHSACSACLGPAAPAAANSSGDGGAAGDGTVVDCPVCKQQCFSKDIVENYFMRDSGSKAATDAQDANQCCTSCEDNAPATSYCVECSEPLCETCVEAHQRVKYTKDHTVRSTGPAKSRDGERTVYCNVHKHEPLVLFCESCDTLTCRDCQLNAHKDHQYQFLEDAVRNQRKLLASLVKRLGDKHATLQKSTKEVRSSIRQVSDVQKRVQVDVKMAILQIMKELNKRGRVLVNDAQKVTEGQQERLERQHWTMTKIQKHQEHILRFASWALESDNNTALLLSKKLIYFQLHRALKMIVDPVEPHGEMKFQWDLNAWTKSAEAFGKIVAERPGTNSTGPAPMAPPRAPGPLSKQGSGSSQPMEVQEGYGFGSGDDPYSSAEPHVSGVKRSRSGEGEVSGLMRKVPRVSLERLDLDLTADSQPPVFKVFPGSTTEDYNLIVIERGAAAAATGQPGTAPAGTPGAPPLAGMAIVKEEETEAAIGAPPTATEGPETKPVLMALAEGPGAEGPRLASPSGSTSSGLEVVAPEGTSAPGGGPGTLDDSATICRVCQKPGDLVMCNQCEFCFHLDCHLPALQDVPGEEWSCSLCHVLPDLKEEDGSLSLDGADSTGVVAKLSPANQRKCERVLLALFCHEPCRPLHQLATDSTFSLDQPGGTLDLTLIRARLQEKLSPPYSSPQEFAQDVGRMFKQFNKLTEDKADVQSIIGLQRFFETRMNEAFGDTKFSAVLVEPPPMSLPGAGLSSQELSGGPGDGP
UniProt P50750: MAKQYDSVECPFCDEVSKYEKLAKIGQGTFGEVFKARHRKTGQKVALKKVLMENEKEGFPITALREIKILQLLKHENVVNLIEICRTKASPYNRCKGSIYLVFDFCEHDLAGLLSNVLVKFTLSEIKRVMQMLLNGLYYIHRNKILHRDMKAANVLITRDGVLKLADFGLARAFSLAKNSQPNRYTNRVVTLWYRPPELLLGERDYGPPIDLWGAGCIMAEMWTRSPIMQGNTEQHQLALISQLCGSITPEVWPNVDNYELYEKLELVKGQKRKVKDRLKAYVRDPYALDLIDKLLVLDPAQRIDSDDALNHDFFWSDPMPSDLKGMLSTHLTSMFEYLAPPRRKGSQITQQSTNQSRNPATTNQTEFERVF
UniProt O94992: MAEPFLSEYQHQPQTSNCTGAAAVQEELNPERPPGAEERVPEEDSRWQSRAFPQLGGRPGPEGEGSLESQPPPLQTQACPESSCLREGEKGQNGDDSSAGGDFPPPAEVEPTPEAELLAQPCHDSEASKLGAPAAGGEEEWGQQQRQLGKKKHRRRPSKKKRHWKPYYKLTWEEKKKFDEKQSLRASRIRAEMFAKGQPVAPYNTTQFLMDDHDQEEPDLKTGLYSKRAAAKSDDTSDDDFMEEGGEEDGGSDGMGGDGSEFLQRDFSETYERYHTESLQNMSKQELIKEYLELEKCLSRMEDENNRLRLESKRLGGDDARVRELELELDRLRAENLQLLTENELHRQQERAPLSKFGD

| binding | Substance |
| --- | --- |
| binds | CDK9 (from UniProt P50750 1-372) |
| binds | HEXIM1 (from UniProt O94992 1-359) |

Source: doi:10.1101/777771
